Experimental data as given in paper doi:10.1101/2023.10.03.560675.
These are yes or no findings as the source states them, for the method shown. Binding seen in cells or lysates may run through a third protein. Some binding calls cover weakened binding; strength is not graded here.

The chains behind the UniProt entries cited, without tags or fusion partners.
UniProt Q15561: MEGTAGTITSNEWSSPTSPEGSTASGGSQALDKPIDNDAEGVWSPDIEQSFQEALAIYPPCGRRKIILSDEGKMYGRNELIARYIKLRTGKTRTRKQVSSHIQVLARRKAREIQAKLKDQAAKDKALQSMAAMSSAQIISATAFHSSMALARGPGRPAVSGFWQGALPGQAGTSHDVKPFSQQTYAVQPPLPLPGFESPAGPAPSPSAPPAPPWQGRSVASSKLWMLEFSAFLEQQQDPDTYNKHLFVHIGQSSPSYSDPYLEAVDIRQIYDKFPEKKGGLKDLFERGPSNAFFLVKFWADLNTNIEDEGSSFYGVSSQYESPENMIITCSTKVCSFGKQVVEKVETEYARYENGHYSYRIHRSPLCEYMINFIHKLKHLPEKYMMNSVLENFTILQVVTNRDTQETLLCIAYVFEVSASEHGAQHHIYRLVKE
UniProt P09874: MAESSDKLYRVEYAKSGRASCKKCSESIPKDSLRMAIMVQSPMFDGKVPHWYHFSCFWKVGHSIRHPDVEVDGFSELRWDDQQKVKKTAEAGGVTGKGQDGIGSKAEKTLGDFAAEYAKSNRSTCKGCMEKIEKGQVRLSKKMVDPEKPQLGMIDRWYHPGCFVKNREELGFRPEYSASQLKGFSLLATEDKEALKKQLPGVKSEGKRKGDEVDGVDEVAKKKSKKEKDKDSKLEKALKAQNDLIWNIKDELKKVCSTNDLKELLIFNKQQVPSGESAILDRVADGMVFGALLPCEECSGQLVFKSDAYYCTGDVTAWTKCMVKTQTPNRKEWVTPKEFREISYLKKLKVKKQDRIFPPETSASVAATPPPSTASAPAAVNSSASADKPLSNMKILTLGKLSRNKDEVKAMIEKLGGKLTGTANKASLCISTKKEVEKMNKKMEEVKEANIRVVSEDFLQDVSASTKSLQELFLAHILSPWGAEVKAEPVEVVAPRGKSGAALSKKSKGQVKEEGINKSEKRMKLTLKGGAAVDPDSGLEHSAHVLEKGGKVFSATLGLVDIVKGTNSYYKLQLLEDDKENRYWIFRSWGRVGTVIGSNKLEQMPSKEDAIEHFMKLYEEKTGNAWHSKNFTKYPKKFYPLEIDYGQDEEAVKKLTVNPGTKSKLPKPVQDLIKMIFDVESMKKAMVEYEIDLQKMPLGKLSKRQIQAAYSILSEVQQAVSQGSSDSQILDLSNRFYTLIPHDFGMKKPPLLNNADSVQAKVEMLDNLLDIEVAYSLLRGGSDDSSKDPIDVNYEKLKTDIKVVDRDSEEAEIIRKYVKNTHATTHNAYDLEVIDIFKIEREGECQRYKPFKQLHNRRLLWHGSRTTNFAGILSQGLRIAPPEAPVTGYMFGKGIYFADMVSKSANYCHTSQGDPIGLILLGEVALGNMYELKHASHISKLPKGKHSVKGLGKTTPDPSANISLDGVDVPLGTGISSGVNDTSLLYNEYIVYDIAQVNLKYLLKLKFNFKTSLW

Molecular target: TEAD4-Myc (human) (UniProt Q15561)
Assay: co-IP

## PARP1 (from UniProt P09874 1-1014)
  binding: binds
